The supplement of paper PMC11659162
The other results are listed elsewhere or left out. Single values of this set are uncertain.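 The cells are a human neuroglioma line carrying a green fluorescent autophagy reporter.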

What was measured:
H4 GFP-LC3 [1] = assay: cell viability (scaled to control) (fraction of control); higher = more viable cells
H4 GFP-LC3 [2] = assay: ACBP immunofluorescence intensity (scaled to control) (AU (scaled)); higher = more intracellular ACBP/DBI

`Cn1c(=O)c2nc[nH]c2n(C)c1=O` (5 µM) was tested, and the cell viability (H4 GFP-LC3 [1]; 6 h) was 0.995, the cell viability (H4 GFP-LC3 [1]; 24 h) was 1.05 and the ACBP immunofluorescence intensity (H4 GFP-LC3 [2]; 6 h) was 0.938. For the same compound, the ACBP immunofluorescence intensity (H4 GFP-LC3 [2]; 24 h) was 0.763.
`Nc1ncnc2c1ncn2C1OC(COP(=O)(O)O)C(O)C1O` (stereo not given) (5 µM) showed a cell viability (H4 GFP-LC3 [1]; 6 h) of 0.877, a cell viability (H4 GFP-LC3 [1]; 24 h) of 1.15 and an ACBP immunofluorescence intensity (H4 GFP-LC3 [2]; 6 h) of 1. For the same compound, the ACBP immunofluorescence intensity (H4 GFP-LC3 [2]; 24 h) was 0.867.
For `O=C(OCCN1CCCCC1)c1c[nH]c2ccccc12` (5 µM), the cell viability (H4 GFP-LC3 [1]; 6 h) was 0.743, the cell viability (H4 GFP-LC3 [1]; 24 h) was 1.03 and the ACBP immunofluorescence intensity (H4 GFP-LC3 [2]; 6 h) was 0.931. It also gave an ACBP immunofluorescence intensity (H4 GFP-LC3 [2]; 24 h) of 0.463.
Work on `O=C(Nc1ccc(C(=O)Nc2ccc(C(=O)Nc3ccc(S(=O)(=O)O)c4cc(S(=O)(=O)O)cc(S(=O)(=O)O)c34)cc2)cc1)Nc1ccc(C(=O)Nc2ccc(C(=O)Nc3ccc(S(=O)(=O)O)c4cc(S(=O)(=O)O)cc(S(=O)(=O)O)c34)cc2)cc1` (5 µM) yielded a cell viability (H4 GFP-LC3 [1]; 6 h) of 0.901, a cell viability (H4 GFP-LC3 [1]; 24 h) of 1.18 and an ACBP immunofluorescence intensity (H4 GFP-LC3 [2]; 6 h) of 0.997. The ACBP immunofluorescence intensity (H4 GFP-LC3 [2]; 24 h) was 0.664.
In the case of `N[C@H](CC(=O)O)C(=O)O` (5 µM), the cell viability (H4 GFP-LC3 [1]; 6 h) is reported as 1.01, the cell viability (H4 GFP-LC3 [1]; 24 h) is reported as 1.27 and the ACBP immunofluorescence intensity (H4 GFP-LC3 [2]; 6 h) is reported as 0.941. For the same compound, the ACBP immunofluorescence intensity (H4 GFP-LC3 [2]; 24 h) was 0.77.
With `O=C(Nc1cccc(C(=O)Nc2ccc(S(=O)(=O)O)c3cc(S(=O)(=O)O)cc(S(=O)(=O)O)c23)c1)Nc1cccc(C(=O)Nc2ccc(S(=O)(=O)O)c3cc(S(=O)(=O)O)cc(S(=O)(=O)O)c23)c1` (5 µM) the cell viability (H4 GFP-LC3 [1]; 6 h) was 0.919, the cell viability (H4 GFP-LC3 [1]; 24 h) was 1.1 and the ACBP immunofluorescence intensity (H4 GFP-LC3 [2]; 6 h) was 0.996. The ACBP immunofluorescence intensity (H4 GFP-LC3 [2]; 24 h) was 0.626.
`C/C=C1\[C@H]2C=C(C)C[C@]1(N)c1ccc(=O)[nH]c1C2` (5 µM) showed a cell viability (H4 GFP-LC3 [1]; 6 h) of 0.843, a cell viability (H4 GFP-LC3 [1]; 24 h) of 0.9 and an ACBP immunofluorescence intensity (H4 GFP-LC3 [2]; 6 h) of 0.985. The ACBP immunofluorescence intensity (H4 GFP-LC3 [2]; 24 h) was 0.473.
`C[C@@H](O)CCCCn1c(=O)c2c(ncn2C)n(C)c1=O` (racemic) (5 µM) showed a cell viability (H4 GFP-LC3 [1]; 6 h) of 0.987, a cell viability (H4 GFP-LC3 [1]; 24 h) of 0.977 and an ACBP immunofluorescence intensity (H4 GFP-LC3 [2]; 6 h) of 0.978. It also gave an ACBP immunofluorescence intensity (H4 GFP-LC3 [2]; 24 h) of 0.569.
`NC(=O)CC[C@@H]1NC(=O)[C@H](Cc2ccccc2)NC(=O)[C@H](Cc2ccc(O)cc2)NC(=O)[C@@H](N)CSSC[C@@H](C(=O)N2CCC[C@H]2C(=O)N[C@@H](CCCN=C(N)N)C(=O)NCC(N)=O)NC(=O)[C@H](CC(N)=O)NC1=O` (5 µM) gave a cell viability (H4 GFP-LC3 [1]; 6 h) of 1.16, a cell viability (H4 GFP-LC3 [1]; 24 h) of 0.891 and an ACBP immunofluorescence intensity (H4 GFP-LC3 [2]; 6 h) of 0.548. The ACBP immunofluorescence intensity (H4 GFP-LC3 [2]; 24 h) was 0.87.
Work on `CNCCCC12CCC(c3ccccc31)c1ccccc12` (5 µM) yielded a cell viability (H4 GFP-LC3 [1]; 6 h) of 0.696, a cell viability (H4 GFP-LC3 [1]; 24 h) of 0.879 and an ACBP immunofluorescence intensity (H4 GFP-LC3 [2]; 6 h) of 0.945. The ACBP immunofluorescence intensity (H4 GFP-LC3 [2]; 24 h) was 0.767.
With `C[C@H](NC(=O)CNC(=O)[C@@H](NC(=O)[C@H](Cc1ccccc1)NC(=O)CNC(=O)CNC(=O)[C@@H](N)Cc1ccccc1)[C@@H](C)O)C(=O)N[C@@H](CCCN=C(N)N)C(=O)N[C@@H](CCCCN)C(=O)N[C@@H](CO)C(=O)N[C@@H](C)C(=O)N[C@@H](CCCN=C(N)N)C(=O)N[C@@H](CCCCN)C(N)=O` (5 µM) the cell viability (H4 GFP-LC3 [1]; 6 h) was 1.09, the cell viability (H4 GFP-LC3 [1]; 24 h) was 1.22 and the ACBP immunofluorescence intensity (H4 GFP-LC3 [2]; 6 h) was 0.832. For the same compound, the ACBP immunofluorescence intensity (H4 GFP-LC3 [2]; 24 h) was 0.888.
With `CC(C(O)c1ccc(O)cc1)N1CCC(Cc2ccccc2)CC1` (stereo not given) (5 µM) the cell viability (H4 GFP-LC3 [1]; 6 h) was 0.642, the cell viability (H4 GFP-LC3 [1]; 24 h) was 0.826 and the ACBP immunofluorescence intensity (H4 GFP-LC3 [2]; 6 h) was 0.941. It also gave an ACBP immunofluorescence intensity (H4 GFP-LC3 [2]; 24 h) of 0.844.
For `O=C(NCCCN1CCCCCC1)C(c1ccccc1)C1CCCCC1` (stereo not given) (5 µM), the cell viability (H4 GFP-LC3 [1]; 6 h) was 0.842, the cell viability (H4 GFP-LC3 [1]; 24 h) was 1.32 and the ACBP immunofluorescence intensity (H4 GFP-LC3 [2]; 6 h) was 1. The ACBP immunofluorescence intensity (H4 GFP-LC3 [2]; 24 h) was 0.861.
`CC(C)C[C@H](NC(=O)[C@H](CCC(N)=O)NC(=O)[C@H](CCCCN)NC(=O)[C@H](CCC(N)=O)NC(=O)[C@@H](N)CCC(=O)O)C(=O)N[C@@H](CCC(N)=O)C(=O)O` (5 µM) was tested, and the cell viability (H4 GFP-LC3 [1]; 6 h) was 1.13, the cell viability (H4 GFP-LC3 [1]; 24 h) was 1.16 and the ACBP immunofluorescence intensity (H4 GFP-LC3 [2]; 6 h) was 0.68. It also gave an ACBP immunofluorescence intensity (H4 GFP-LC3 [2]; 24 h) of 0.83.
`Cc1cc(C(C)(C)C)c(O)c(C)c1CC1=NCCN1` (5 µM) gave a cell viability (H4 GFP-LC3 [1]; 6 h) of 0.768, a cell viability (H4 GFP-LC3 [1]; 24 h) of 0.876 and an ACBP immunofluorescence intensity (H4 GFP-LC3 [2]; 6 h) of 0.952. For the same compound, the ACBP immunofluorescence intensity (H4 GFP-LC3 [2]; 24 h) was 0.478.
